± gives the standard deviation of the averaged measurements. Most entries show no effect beyond the scatter of the controls.
How the values were obtained:
Assay in all cases: level (log10 ratio to DMSO vehicle control); higher = higher biomarker level / cell amount than vehicle control
[1] = compound: C=CC(=O)OCC(F)(F)C(F)(F)C(F)(F)C(F)(F)C(F)(F)C(F)(F)C(F)(F)C(F)F [1H,1H,9H-Perfluorononyl acrylate]; details: 2200 nM; in DMSO
Procedure: (§1)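 BioMAP Diversity Plus panel of 12 human primary cell co-culture systems (3C, 4H, LPS, SAg, BT, BF4T, BE3C, CASM3C, HDF3CGF, KF3CT, MyoF, Mphg). Compounds were added 1 h before stimulation and left for 24 h (MyoF 48 h; BT 72 h for soluble read-outs or 6 d for IgG). Biomarkers were read by ELISA, cytotoxicity by SRB, PBMC viability and proliferation by Alamar Blue. Each well value was divided by the mean of 8 DMSO control wells on the same plate and log10 transformed; duplicate blinded samples were tested at 4 concentrations.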

[2] = compound: O=C(O)C(F)(F)OC(F)(F)C(F)(F)OC(F)(F)C(F)(F)OC(F)(F)C(F)(F)C(F)(F)C(F)(F)F [Perfluoro-3,6,9-trioxatridecanoic acid]; details: 2200 nM; in DMSO
Procedure: as §1

[3] = compound: FC(F)(F)C(F)(F)C(F)(F)C(F)(F)C(F)(F)C(F)(F)C(F)(F)C(F)(F)CCS [2-(Perfluorooctyl)ethanthiol]; details: in DMSO
Procedure: as §1

[4] = compound: O=C(O)C(F)(F)OC(F)(F)C(F)(F)OC(F)(F)F [Perfluoro-3,6-dioxaheptanoic acid]; details: 2200 nM; in DMSO
Procedure: as §1

[5] = compound: O=C(O)CCC(F)(C(F)(F)F)C(F)(F)F [4,4-bis(Trifluoromethyl)-4-fluoropropanoic acid]; details: 2200 nM; in DMSO
Procedure: as §1

Perfluorooctanamidine = compound: N=C(N)C(F)(F)C(F)(F)C(F)(F)C(F)(F)C(F)(F)C(F)(F)C(F)(F)F [Perfluorooctanamidine]; details: in DMSO
Procedure: as §1

[6] = compound: O=C(O)C(F)(F)C(F)(F)C(F)(F)C(F)(F)C(F)(F)C(F)(F)C(F)(F)F [Ammonium perfluorooctanoate]; details: 2200 nM; in DMSO
Procedure: as §1

[7] = compound: CCOC(=O)CC(=O)C(F)(F)C(F)(F)F [Ethyl pentafluoropropionyl acetate]; details: 2200 nM; in DMSO
Procedure: as §1

[8] = compound: O=C(CC(=O)C(F)(F)C(F)(F)C(F)(F)F)c1cccs1 [(Perfluorobutyryl)-2-thenoylmethane]; details: 2200 nM; in DMSO
Procedure: as §1

Perfluorononanoic acid = compound: O=C(O)C(F)(F)C(F)(F)C(F)(F)C(F)(F)C(F)(F)C(F)(F)C(F)(F)C(F)(F)F [Perfluorononanoic acid]; details: 2200 nM; in DMSO
Procedure: as §1

Perfluorooctanoic acid = compound: O=C(O)C(F)(F)C(F)(F)C(F)(F)C(F)(F)C(F)(F)C(F)(F)C(F)(F)F [Perfluorooctanoic acid]; details: 2200 nM; in DMSO
Procedure: as §1

[9] = compound: OCC(F)(F)OC(F)(F)C(F)(F)OC(F)(F)C(F)(F)OC(F)(F)CO [1H,1H,11H,11H-Perfluorotetraethylene glycol]; details: 2200 nM; in DMSO
Procedure: as §1

Perfluorodecanoic acid = compound: O=C(O)C(F)(F)C(F)(F)C(F)(F)C(F)(F)C(F)(F)C(F)(F)C(F)(F)C(F)(F)C(F)(F)F [Perfluorodecanoic acid]; details: in DMSO
Procedure: as §1

[10] = compound: OCC(F)(F)C(F)(F)C(F)(F)C(F)(F)C(F)(F)C(F)(F)C(F)(F)C(F)(F)CO [1H,1H,10H,10H-Perfluorodecane-1,10-diol]; details: 2200 nM; in DMSO
Procedure: as §1

Test System | level (log10) [1] | level (log10) [2] | level (log10) ([3]; 740 nM) | level (log10) ([3]; 2200 nM) | level (log10) [4] | level (log10) [5] | level (log10) (Perfluorooctanamidine; 2200 nM) | level (log10) (Perfluorooctanamidine; 6700 nM) | level (log10) (Perfluorooctanamidine; 20000 nM) | level (log10) (Perfluorooctanamidine; 60000 nM) | level (log10) [6] | level (log10) [7] | level (log10) [8] | level (log10) (Perfluorononanoic acid) | level (log10) (Perfluorooctanoic acid) | level (log10) [9] | level (log10) (Perfluorodecanoic acid; 2200 nM) | level (log10) (Perfluorodecanoic acid; 6700 nM) | level (log10) (Perfluorodecanoic acid; 20000 nM) | level (log10) [10]
SAg:CD69 | 0.0025 ± 0.029 | 0.0045 ± 0.016 | -0.029 ± 0.013 | 0 ± 0.0014 | -0.007 ± 0.0057 | -0.009 ± 0.041 | -0.0105 ± 0.012 | 0.006 ± 0.03 | -0.0035 ± 0.019 | -0.036 | -0.0155 ± 0.005 | 0.029 ± 0.028 | -0.0275 ± 0.0035 | -0.0215 ± 0.00071 | -0.005 | -0.005 ± 0.062 | -0.0235 ± 0.021 | -0.0335 ± 0.015 | -0.062 ± 0.0057 | 0.01 ± 0.03
LPS:CD62E/E-Selectin | -0.0115 ± 0.0064 | -0.0105 ± 0.0021 | -0.001 ± 0.02 | 0.0075 ± 0.036 | -0.0035 ± 0.018 | 0.008 ± 0.0057 | 0.0055 ± 0.0092 | 0.0135 ± 0.00071 | -0.009 ± 0.013 | 0.019 | -0.004 ± 0.0085 | 0.022 ± 0.059 | -0.0405 ± 0.033 | -0.0075 ± 0.012 | 0.0105 ± 0.019 | 0.013 ± 0.054 | -0.0245 ± 0.00071 | -0.0115 ± 0.00071 | -0.0205 ± 0.015 | -0.065 ± 0.072
LPS:IL-1alpha | 0.0185 ± 0.023 | -0.018 ± 0.065 | -0.032 ± 0.038 | -0.093 ± 0.0042 | -0.046 ± 0.021 | 0.0445 ± 0.0078 | 0.03 ± 0.013 | 0.011 ± 0.024 | -0.0095 ± 0.049 | -0.003 | 0.009 ± 0.017 | -0.009 ± 0.02 | -0.0385 ± 0.023 | -0.035 ± 0.018 | 0.0185 ± 0.025 | 0.007 ± 0.024 | 0.0165 ± 0.018 | 0.0275 ± 0.016 | -0.0125 ± 0.0092 | 0.0085 ± 0.035
SAg:CCL2/MCP-1 | 0.0135 ± 0.071 | 0.0125 ± 0.029 | 0.0005 ± 0.067 | -0.0105 ± 0.025 | 0.021 ± 0.011 | -0.0015 ± 0.021 | 0.0045 ± 0.0064 | -0.004 ± 0.0014 | 0.0225 ± 0.005 | -0.015 | -0.009 ± 0.0085 | 0.016 ± 0.058 | -0.0115 ± 0.019 | 0.004 ± 0.02 | 0.009 ± 0.0014 | 0.0105 ± 0.057 | -0.009 ± 0.02 | 0.0065 ± 0.0064 | -0.017 ± 0.0014 | 0.0145 ± 0.018
BF4T:PAI-I | 0.011 ± 0.016 | -0.007 ± 0.0099 | -0.019 ± 0.023 | -0.014 ± 0.0028 | -0.0245 ± 0.03 | 0.014 ± 0.0057 | 0.007 | 0.007 ± 0.013 | -0.001 ± 0.03 | 0.03 | 0.0105 ± 0.011 | 0.0015 ± 0.013 | 0.0055 ± 0.0092 | -0.0195 ± 0.023 | 0.01 ± 0.0085 | -0.0015 ± 0.018 | 0.017 ± 0.013 | 0.0185 ± 0.00071 | -0.119 ± 0.043 | 0.0185 ± 0.039
BE3C:CXCL9/MIG | 0.005 ± 0.0042 | 0.0155 ± 0.019 | 0.0065 ± 0.033 | -0.0005 ± 0.028 | -0.0115 ± 0.0078 | -0.006 ± 0.0071 | 0.022 ± 0.0042 | 0.0135 ± 0.018 | 0.0085 ± 0.0092 | 0.037 | 0.004 ± 0.018 | -0.008 ± 0.018 | 0.001 ± 0.016 | -0.011 ± 0.0085 | 0 ± 0.014 | -0.008 ± 0.0099 | 0 ± 0.0028 | -0.003 ± 0.0042 | -0.715 ± 0.9 | -0.0065 ± 0.013
